Paper PMC3771917, “The Crystal Structure of the Orphan Nuclear Receptor NR2E3/PNR Ligand Binding Domain Reveals a Dimeric Auto-Repressed Conformation” (PLoS ONE, 2013)
These are yes or no findings as the source states them, for the method shown. Some results given as binding are weak or reduced against the parent protein; the word gives no strength. Blank lines part the entries; values can stand above or below the substance they belong to.

The chains behind the UniProt entries cited, without tags or fusion partners. Where a name states a change or a piece, a line headed by the entry shows the natural chain unless it says otherwise. A line that says so, or that is headed by a name, gives the form on record, which may keep a tag or linker. Residues count along the entry.
NR2E3 LBD (residues 192-410), wild type, as Gal4DBD–NR2E3LBD and VP16AD–NR2E3LBD (Q9Y5X4, residues 192-410): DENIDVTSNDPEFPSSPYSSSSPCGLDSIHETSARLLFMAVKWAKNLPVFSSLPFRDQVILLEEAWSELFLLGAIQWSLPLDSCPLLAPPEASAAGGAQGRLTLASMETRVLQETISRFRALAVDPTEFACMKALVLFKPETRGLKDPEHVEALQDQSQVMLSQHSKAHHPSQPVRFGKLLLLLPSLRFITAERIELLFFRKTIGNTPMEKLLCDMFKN
NR2E3 LBD (residues 192-410) L372R (Q9Y5X4, form named): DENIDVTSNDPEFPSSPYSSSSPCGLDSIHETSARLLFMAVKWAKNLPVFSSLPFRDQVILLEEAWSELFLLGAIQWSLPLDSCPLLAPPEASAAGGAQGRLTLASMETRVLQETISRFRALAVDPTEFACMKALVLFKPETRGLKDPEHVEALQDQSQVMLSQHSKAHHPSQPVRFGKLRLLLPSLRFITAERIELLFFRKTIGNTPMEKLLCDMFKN
NR2E3 LBD (residues 192-410) L372R/L375R (Q9Y5X4, form named): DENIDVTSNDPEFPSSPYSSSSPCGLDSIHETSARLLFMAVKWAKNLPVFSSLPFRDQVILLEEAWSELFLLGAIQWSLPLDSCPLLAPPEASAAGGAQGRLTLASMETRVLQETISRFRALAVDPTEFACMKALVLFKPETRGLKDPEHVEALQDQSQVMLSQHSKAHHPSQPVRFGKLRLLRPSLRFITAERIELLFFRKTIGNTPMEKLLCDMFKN
NR2E3 LBD (residues 192-410) L375R (Q9Y5X4, form named): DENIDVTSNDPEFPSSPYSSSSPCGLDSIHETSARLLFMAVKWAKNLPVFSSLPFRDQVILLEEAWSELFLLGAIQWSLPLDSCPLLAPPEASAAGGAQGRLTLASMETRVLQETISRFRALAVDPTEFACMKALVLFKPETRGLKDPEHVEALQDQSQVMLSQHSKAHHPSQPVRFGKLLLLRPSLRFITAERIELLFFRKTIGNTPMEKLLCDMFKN

Tests used:
Test in all cases: two-hybrid; mammalian two hybrid in AD293 cells: Gal4DBD–NR2E3LBD (pBind-GAL4) and VP16AD–NR2E3LBD (pACT-VP16), luciferase reporter normalised to Renilla
[1] = molecular target: NR2E3 LBD (residues 192-410) L372R (human) (UniProt Q9Y5X4)
[2] = molecular target: NR2E3 LBD (residues 192-410) L372R/L375R (human) (UniProt Q9Y5X4)
[3] = molecular target: NR2E3 LBD (residues 192-410) L375R (human) (UniProt Q9Y5X4)
[4] = molecular target: NR2E3 LBD (residues 192-410), wild type, as Gal4DBD–NR2E3LBD and VP16AD–NR2E3LBD (human) (UniProt Q9Y5X4)

binding [1]: no binding
Substance: NR2E3 LBD (residues 192-410) L372R (from UniProt Q9Y5X4 192-410) (domain or fragment)

binding [2]: no binding
Substance: NR2E3 LBD (residues 192-410) L372R/L375R (from UniProt Q9Y5X4 192-410) (domain or fragment)

binding [3]: no binding
Substance: NR2E3 LBD (residues 192-410) L375R (from UniProt Q9Y5X4 192-410) (domain or fragment)

binding [4]: binds
Substance: NR2E3 LBD (residues 192-410), wild type, as Gal4DBD–NR2E3LBD and VP16AD–NR2E3LBD (from UniProt Q9Y5X4 192-410) (domain or fragment)
